In patent US20250194601A1, “PYRIDAZINONE COMPOUND OR SALT THEREOF AND PEST CONTROL AGENT CONTAINING IT” (ISHIHARA SANGYO KAISHA, LTD., priority 2022, published 2025):
Some results were stated once for a whole list of compounds, not compound by compound.

Each compound was assayed on two-spotted spider mite (Tetranychus urticae) (assay: Test Example 3: effects against two-spotted spider mite, kidney bean leaf dip). Conditions: 200 ppm, adults, 3rd day after the application.
Format: in vivo
Protocol: Test on effects against two-spotted spider mite (Tetranychus urticae) In a chemical solution of a test compound at a concentration of 800 ppm, 200 ppm or 50 ppm, a leaf of kidney bean on which about 20 adults of two-spotted spider mite had been released, was dipped. After the chemical solution dried in air, the leaf was left in a constant temperature chamber with lighting at 25° C. On the 3rd day after the application, the number of dead adults was counted, and the mortality (%) was calculated by the following formula. Adults that dropped from the leaf or adults that were moribund were counted as dead adults.
In the case of `Cc1cc(C(F)(F)F)cc(C)c1-n1nc(C)c(O)c(-n2cc(Br)cn2)c1=O` [2-239], the mortality is reported as ≥ 80%. For `CCc1nn(-c2c(C)cc(C(F)(F)F)cc2C)c(=O)c(-n2cc(C)cn2)c1O` [2-241], the mortality was ≥ 80%. In the case of `Cc1cnn(-c2c(O)c(C(C)C)nn(-c3c(C)cc(C(F)(F)F)cc3C)c2=O)c1` [2-243], the mortality is reported as ≥ 80%. In the case of `CCc1nn(-c2ccc(C(F)(F)F)cc2Br)c(=O)c(-n2cc(Cl)cn2)c1O` [2-262], the mortality is reported as ≥ 80%. With `CCc1nn(-c2ccc(C(F)(F)F)cc2C)c(=O)c(-n2cc(Cl)cn2)c1O` [2-271] the mortality was ≥ 80%. In the case of `C=Cc1cc(C(F)(F)F)cc(C)c1-n1nc(CC)c(O)c(-n2cc(F)cn2)c1=O` [2-277], the mortality is reported as ≥ 80%. With `CCc1cc(C(F)(F)F)cc(C)c1-n1nc(CC)c(O)c(-n2cc(F)cn2)c1=O` [2-278] the mortality was ≥ 80%. For `CCc1nn(-c2c(F)cc(C(F)(F)F)cc2Br)c(=O)c(-n2cc(F)cn2)c1O` [2-285], the mortality was ≥ 80%. With `CCc1nn(-c2c(F)cc(C(F)(F)F)cc2Br)c(=O)c(-n2cc(Cl)cn2)c1O` [2-286] the mortality was ≥ 80%. In the case of `CCc1nn(-c2c(C)cc(C(F)(F)F)cc2Br)c(=O)c(-n2cc(Cl)cn2)c1O` [2-287], the mortality is reported as ≥ 80%. In the case of `CCc1nn(-c2ccc(OC(F)(F)F)cc2C)c(=O)c(-n2cc(F)cn2)c1O` [2-288], the mortality is reported as ≥ 80%. With `CCc1nn(-c2c(C)cc(C(F)(F)F)cc2Br)c(=O)c(-n2cc(F)cn2)c1O` [2-291] the mortality was ≥ 80%. With `CCc1nn(-c2c(Cl)cc(C(F)(F)F)cc2Cl)c(=O)c(-n2cc(Br)cn2)c1O` [2-297] the mortality was ≥ 80%. `CCc1nn(-c2c(Cl)cc(C(F)(F)F)cc2Cl)c(=O)c(-n2cc(I)cn2)c1O` [2-298] was tested, and the mortality was ≥ 80%. In the case of `CCc1nn(-c2c(Br)cc(C(F)(F)F)cc2Br)c(=O)c(-n2cc(Cl)cn2)c1O` [2-299], the mortality is reported as ≥ 80%. For `CCc1nn(-c2c(C)cc(OC(F)(F)F)cc2Cl)c(=O)c(-n2cc(Cl)cn2)c1O` [2-300], the mortality was ≥ 80%. `CCc1nn(-c2c(C)cc(C(F)(F)F)cc2F)c(=O)c(-n2cc(Cl)cn2)c1O` [2-301] was tested, and the mortality was ≥ 80%. With `CCc1nn(-c2c(C)cc(C(F)(F)F)cc2Cl)c(=O)c(-n2cc(C)cn2)c1O` [2-302] the mortality was ≥ 80%. `CCc1nn(-c2c(C)cc(OC(F)(F)F)cc2Cl)c(=O)c(-n2cc(C)cn2)c1O` [2-303] was tested, and the mortality was ≥ 80%. `CCc1nn(-c2c(C)cc(F)cc2C)c(=O)c(-n2cc(F)cn2)c1O` [2-304] was tested, and the mortality was ≥ 80%. `CCc1nn(-c2c(C)cc(C(F)(F)F)cc2Cl)c(=O)c(-n2cc(Br)cn2)c1O` [2-309] was tested, and the mortality was ≥ 80%. With `CCc1nn(-c2c(C)cc(OC(F)(F)F)cc2Cl)c(=O)c(-n2cc(Br)cn2)c1O` [2-310] the mortality was ≥ 80%. `CCc1nn(-c2c(Cl)cc(C(F)(F)F)cc2Br)c(=O)c(-n2cc(F)cn2)c1O` [2-311] was tested, and the mortality was ≥ 80%. `CCc1nn(-c2c(C)cc(C(F)(F)F)cc2Cl)c(=O)c(-n2cc(C(F)(F)F)cn2)c1O` [2-313] was tested, and the mortality was ≥ 80%. `CCc1nn(-c2c(C)cc(OC(F)(F)F)cc2Cl)c(=O)c(-n2cc(C(F)(F)F)cn2)c1O` [2-314] was tested, and the mortality was ≥ 80%. In the case of `C=Cc1cc(C(F)(F)F)cc(Cl)c1-n1nc(CC)c(O)c(-n2cc(F)cn2)c1=O` [2-317], the mortality is reported as ≥ 80%. With `CCc1cc(C(F)(F)F)cc(Cl)c1-n1nc(CC)c(O)c(-n2cc(F)cn2)c1=O` [2-318] the mortality was ≥ 80%. In the case of `CCc1nn(-c2c(C)cc(OC(F)(F)F)cc2C)c(=O)c(-n2cc(F)cn2)c1O` [2-319], the mortality is reported as ≥ 80%. `CCc1nn(-c2c(F)cc(C(F)(F)F)cc2F)c(=O)c(-n2cc(F)cn2)c1O` [2-323] was tested, and the mortality was ≥ 80%. With `CCc1nn(-c2c(C)cc(C(F)(F)F)cc2C)c(=O)c(-n2cc(I)cn2)c1O` [2-324] the mortality was ≥ 80%. `CCc1nn(-c2c(C)cc(OC(F)(F)F)cc2C)c(=O)c(-n2cc(Br)cn2)c1O` [2-325] was tested, and the mortality was ≥ 80%. `CCc1nn(-c2c(C)cc(OC(F)(F)F)cc2C)c(=O)c(-n2cc(Cl)cn2)c1O` [2-326] was tested, and the mortality was ≥ 80%. In the case of `CCc1nn(-c2c(C)cc(Cl)cc2C)c(=O)c(-n2cc(F)cn2)c1O` [2-328], the mortality is reported as ≥ 80%. For `CCc1nn(-c2c(C)cc(Br)cc2C)c(=O)c(-n2cc(F)cn2)c1O` [2-329], the mortality was ≥ 80%. In the case of `CCc1nn(-c2c(C)cc(F)cc2Br)c(=O)c(-n2cc(Cl)c(C(F)(F)F)n2)c1O` [2-369], the mortality is reported as ≥ 80%. For `CCc1nn(-c2c(C)cc(C(F)(F)F)cc2C)c(=O)c(-n2cc(Cl)c(C(F)(F)F)n2)c1O` [2-373], the mortality was ≥ 80%.

Same assay, conditions: 800 ppm, adults, 3rd day after the application
`CCc1nn(-c2c(Cl)cc(C(F)(F)F)cc2Cl)c(=O)c(-n2cc(F)cn2)c1O` [2-263] was tested, and the mortality was ≥ 80%. With `CCc1nn(-c2c(Br)cc(C(F)(F)F)cc2Br)c(=O)c(-n2cc(F)cn2)c1O` [2-266] the mortality was ≥ 80%. In the case of `CCc1nn(-c2ccc(C(F)(F)F)cc2Br)c(=O)c(-n2cc(F)cn2)c1O` [2-270], the mortality is reported as ≥ 80%. For `CCc1nn(-c2ccc(C(F)(F)F)cc2C)c(=O)c(-n2cc(F)cn2)c1O` [2-274], the mortality was ≥ 80%. With `CCc1nn(-c2c(C)cc(OC(F)(F)F)cc2Cl)c(=O)c(-n2cc(F)cn2)c1O` [2-279] the mortality was ≥ 80%. With `CCc1nn(-c2c(C)cc(OC(F)(F)F)cc2Br)c(=O)c(-n2cc(Cl)cn2)c1O` [2-283] the mortality was ≥ 80%. For `CCc1nn(-c2c(C)cc(C(F)(F)F)cc2Cl)c(=O)c(-n2cc(F)cn2)c1O` [2-284], the mortality was ≥ 80%. For `CCc1nn(-c2c(C)cc(C(F)(F)F)cc2Cl)c(=O)c(-n2cc(Cl)cn2)c1O` [2-292], the mortality was ≥ 80%. For `CCc1nn(-c2c(Cl)cc(F)cc2Cl)c(=O)c(-n2cc(F)cn2)c1O` [2-293], the mortality was ≥ 80%. With `CCc1nn(-c2c(F)cc(F)cc2F)c(=O)c(-n2cc(F)cn2)c1O` [2-294] the mortality was ≥ 80%. `CCc1nn(-c2c(Cl)cc(C(F)(F)F)cc2Cl)c(=O)c(-n2cc(Cl)cn2)c1O` [2-295] was tested, and the mortality was ≥ 80%. `CCc1nn(-c2c(C)cc(C(F)(F)F)cc2F)c(=O)c(-n2cc(F)cn2)c1O` [2-296] was tested, and the mortality was ≥ 80%. `CCc1nn(-c2c(Cl)cc(C(F)(F)F)cc2Cl)c(=O)c(-n2cc(Br)c(C(F)(F)F)n2)c1O` [2-335] was tested, and the mortality was ≥ 80%. For `CCc1nn(-c2c(Cl)cc(C(F)(F)F)cc2Cl)c(=O)c(-n2cc([N+](=O)[O-])c(C)n2)c1O` [2-336], the mortality was ≥ 80%. For `CCc1nn(-c2c(Cl)cc(C(F)(F)F)cc2Cl)c(=O)c(-n2cc(Cl)c(C(F)(F)F)n2)c1O` [2-338], the mortality was ≥ 80%. In the case of `CCc1nn(-c2c(Cl)cc(C(F)(F)F)cc2Cl)c(=O)c(-n2cc([N+](=O)[O-])c(Cl)n2)c1O` [2-340], the mortality is reported as ≥ 80%. With `CCc1nn(-c2ccc(C(F)(F)F)cc2C)c(=O)c(-n2cc(Cl)c(C(F)(F)F)n2)c1O` [2-342] the mortality was ≥ 80%. In the case of `CCc1nn(-c2ccc(C(F)(F)F)cc2Br)c(=O)c(-n2cc(Cl)c(C(F)(F)F)n2)c1O` [2-345], the mortality is reported as ≥ 80%. With `CCc1nn(-c2cc(Cl)c(F)cc2Br)c(=O)c(-n2cc(Cl)c(C(F)(F)F)n2)c1O` [2-347] the mortality was ≥ 80%. For `CCc1nn(-c2cc(Cl)c(Br)cc2F)c(=O)c(-n2cc(Cl)c(C(F)(F)F)n2)c1O` [2-348], the mortality was ≥ 80%. In the case of `CCc1nn(-c2cc(Cl)ccc2Cl)c(=O)c(-n2cc(Cl)c(C(F)(F)F)n2)c1O` [2-349], the mortality is reported as ≥ 80%. In the case of `CCc1nn(-c2cc(Cl)cc(C(F)(F)F)c2)c(=O)c(-n2ccc(C(F)(F)F)n2)c1O` [2-352], the mortality is reported as ≥ 80%. For `CCc1nn(-c2c(F)cc(Cl)cc2Br)c(=O)c(-n2cc(Cl)c(C(F)(F)F)n2)c1O` [2-353], the mortality was ≥ 80%. `CCc1nn(-c2cc(Br)c(F)cc2C)c(=O)c(-n2cc(Cl)c(C(F)(F)F)n2)c1O` [2-356] was tested, and the mortality was ≥ 80%. `CCc1nn(-c2cc(Br)c(Cl)cc2C)c(=O)c(-n2cc(Cl)c(C(F)(F)F)n2)c1O` [2-357] was tested, and the mortality was ≥ 80%. For `CCc1nn(-c2c(Br)cc(Br)cc2Br)c(=O)c(-n2cc(Cl)c(C(F)(F)F)n2)c1O` [2-358], the mortality was ≥ 80%. `CCc1nn(-c2c(Br)cc(F)cc2Br)c(=O)c(-n2cc(Cl)c(C(F)(F)F)n2)c1O` [2-359] was tested, and the mortality was ≥ 80%. `CCc1nn(-c2ccc(F)c(F)c2C)c(=O)c(-n2cc(Cl)c(C(F)(F)F)n2)c1O` [2-360] was tested, and the mortality was ≥ 80%. `CCc1nn(-c2cc(Cl)c(Br)cc2C)c(=O)c(-n2cc(Cl)c(C(F)(F)F)n2)c1O` [2-361] was tested, and the mortality was ≥ 80%. In the case of `CCc1nn(-c2cc(F)cc(Br)c2C)c(=O)c(-n2cc(Cl)c(C(F)(F)F)n2)c1O` [2-362], the mortality is reported as ≥ 80%. With `CCc1nn(-c2cc(F)c(Br)cc2C)c(=O)c(-n2cc(Cl)c(C(F)(F)F)n2)c1O` [2-363] the mortality was ≥ 80%. For `CCc1nn(-c2c(F)cc(Br)cc2F)c(=O)c(-n2cc(Cl)c(C(F)(F)F)n2)c1O` [2-364], the mortality was ≥ 80%. `CCc1nn(-c2cc(F)c(F)cc2C)c(=O)c(-n2cc(Cl)c(C(F)(F)F)n2)c1O` [2-365] was tested, and the mortality was ≥ 80%. `CCc1nn(-c2ccc(Cl)cc2Br)c(=O)c(-n2cc(Cl)c(C(F)(F)F)n2)c1O` [2-366] was tested, and the mortality was ≥ 80%. `CCc1nn(-c2c(C)cc(Br)cc2Br)c(=O)c(-n2cc(Cl)c(C(F)(F)F)n2)c1O` [2-367] was tested, and the mortality was ≥ 80%. In the case of `CCc1nn(-c2c(Br)cc(Cl)cc2Br)c(=O)c(-n2cc(Cl)c(C(F)(F)F)n2)c1O` [2-368], the mortality is reported as ≥ 80%. In the case of `CCc1nn(-c2c(C)cc(Br)cc2Cl)c(=O)c(-n2cc(Cl)c(C(F)(F)F)n2)c1O` [2-370], the mortality is reported as ≥ 80%. `CCc1nn(-c2ccc(Br)c(F)c2C)c(=O)c(-n2cc(Cl)c(C(F)(F)F)n2)c1O` [2-371] was tested, and the mortality was ≥ 80%. `CCc1nn(-c2ccc(Br)c(Cl)c2C)c(=O)c(-n2cc(Cl)c(C(F)(F)F)n2)c1O` [2-372] was tested, and the mortality was ≥ 80%. With `CCc1nn(-c2c(C)cc(C(F)(F)F)cc2Cl)c(=O)c(-n2cc(Cl)c(C(F)(F)F)n2)c1O` [2-377] the mortality was ≥ 80%. With `CCc1nn(-c2c(C)cc(C(F)(F)F)cc2Br)c(=O)c(-n2cc(Cl)c(C(F)(F)F)n2)c1O` [2-378] the mortality was ≥ 80%.
